# Source: the supplement of paper PMC10032668
# By UniProt entry, the sequences of proteins in these tests, tags left out.
# RGPD5, Q99666, UniProt Q99666, whole entry: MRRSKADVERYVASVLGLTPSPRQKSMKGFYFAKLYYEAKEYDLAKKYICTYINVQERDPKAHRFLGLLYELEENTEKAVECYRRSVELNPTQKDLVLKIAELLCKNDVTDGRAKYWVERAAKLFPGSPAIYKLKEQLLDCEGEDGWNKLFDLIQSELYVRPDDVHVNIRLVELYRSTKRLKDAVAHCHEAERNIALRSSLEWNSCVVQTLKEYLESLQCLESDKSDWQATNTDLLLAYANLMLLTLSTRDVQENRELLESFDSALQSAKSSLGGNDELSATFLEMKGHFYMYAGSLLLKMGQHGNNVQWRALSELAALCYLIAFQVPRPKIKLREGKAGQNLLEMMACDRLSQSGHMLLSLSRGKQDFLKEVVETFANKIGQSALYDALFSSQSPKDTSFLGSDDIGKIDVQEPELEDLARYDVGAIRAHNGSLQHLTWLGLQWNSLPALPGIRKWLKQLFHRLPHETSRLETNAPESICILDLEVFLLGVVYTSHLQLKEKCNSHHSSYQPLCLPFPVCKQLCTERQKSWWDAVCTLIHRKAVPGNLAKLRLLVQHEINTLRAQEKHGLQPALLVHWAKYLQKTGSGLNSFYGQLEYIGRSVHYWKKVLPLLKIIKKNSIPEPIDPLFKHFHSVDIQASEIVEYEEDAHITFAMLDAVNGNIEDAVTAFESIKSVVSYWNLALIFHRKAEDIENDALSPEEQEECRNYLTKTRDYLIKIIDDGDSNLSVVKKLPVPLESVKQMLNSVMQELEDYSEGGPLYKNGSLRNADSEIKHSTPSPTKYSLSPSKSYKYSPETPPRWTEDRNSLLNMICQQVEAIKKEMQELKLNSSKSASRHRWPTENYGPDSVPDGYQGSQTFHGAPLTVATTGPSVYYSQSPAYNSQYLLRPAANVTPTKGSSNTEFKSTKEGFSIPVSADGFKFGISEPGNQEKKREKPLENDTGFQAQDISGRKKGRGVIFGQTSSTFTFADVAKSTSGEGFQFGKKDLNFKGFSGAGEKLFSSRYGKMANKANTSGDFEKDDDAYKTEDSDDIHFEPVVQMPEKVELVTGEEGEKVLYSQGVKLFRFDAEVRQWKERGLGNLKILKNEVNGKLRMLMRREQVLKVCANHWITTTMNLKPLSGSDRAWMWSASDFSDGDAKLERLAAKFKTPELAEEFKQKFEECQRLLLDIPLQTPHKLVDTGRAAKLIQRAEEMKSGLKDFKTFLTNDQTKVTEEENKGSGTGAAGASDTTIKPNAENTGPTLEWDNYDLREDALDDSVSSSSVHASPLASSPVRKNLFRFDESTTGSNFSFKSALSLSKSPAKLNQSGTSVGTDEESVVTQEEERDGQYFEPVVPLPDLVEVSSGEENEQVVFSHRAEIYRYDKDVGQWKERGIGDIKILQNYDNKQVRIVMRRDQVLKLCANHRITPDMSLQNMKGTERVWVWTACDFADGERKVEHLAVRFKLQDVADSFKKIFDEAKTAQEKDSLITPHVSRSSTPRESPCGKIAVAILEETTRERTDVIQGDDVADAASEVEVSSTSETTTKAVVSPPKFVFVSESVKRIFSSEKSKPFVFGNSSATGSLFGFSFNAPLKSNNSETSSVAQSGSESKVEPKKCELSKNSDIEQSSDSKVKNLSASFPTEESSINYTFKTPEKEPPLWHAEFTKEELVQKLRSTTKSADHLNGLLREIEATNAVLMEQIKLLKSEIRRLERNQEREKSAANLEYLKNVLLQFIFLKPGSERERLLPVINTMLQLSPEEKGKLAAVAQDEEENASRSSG
# This is one part of the list. Only hits are listed; about a third recur on repeated control peptides.
# Assays:
# Assay in all cases: PRISMA enrichment of interactor (LFQ) in peptide spot vs all other peptide spots (log2 fold change); higher = stronger / more specific binding of the interactor to the peptide
# [1] = target: AATF, Q9NY61
# Experimental: (§1)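 PRISMA: 15-aa overlapping tiles (offset 8 aa) of 60 microproteins, plus SOS1/GLUT1 control peptides, were spot-synthesized on cellulose membranes in triplicate. Membranes were incubated with benzonase-treated HEK293T lysate, and bound proteins were identified by LC-MS/MS with LFQ. Enrichment is the log2 fold change of each protein in one spot versus all other spots. Only interactors passing the significance cutoff are listed.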
# [2] = target: ACTB, P60709
# Experimental: as §1
# [3] = target: ALYREF, Q86V81
# Experimental: as §1
# [4] = target: CASC3, O15234
# Experimental: as §1
# [5] = target: ECPAS, Q5VYK3
# Experimental: as §1
# [6] = target: MAPRE1, Q15691
# Experimental: as §1
# [7] = target: NDUFA13, Q9P0J0
# Experimental: as §1
# [8] = target: SHROOM3, Q8TF72
# Experimental: as §1
# [9] = target: SUPT4H1, P63272
# Experimental: as §1
# [10] = target: TOP2A, P11388
# Experimental: as §1
# [11] = target: TSR1, Q2NL82
# Experimental: as §1
# [12] = target: UBE2I, P63279
# Experimental: as §1
# [13] = target: CCDC77, Q9BR77
# Experimental: as §1
# [14] = target: DDX39B, Q13838
# Experimental: as §1
# [15] = target: EIF3M, Q7L2H7
# Experimental: as §1
# [16] = target: FAM107B, Q9H098
# Experimental: as §1
# [17] = target: GATA6, Q92908
# Experimental: as §1
# [18] = target: GTF2F2, P13984
# Experimental: as §1
# [19] = target: HACD3, Q9P035
# Experimental: as §1
# [20] = target: HOMER1, Q86YM7
# Experimental: as §1
# [21] = target: LEO1, Q8WVC0
# Experimental: as §1
# [22] = target: LETM1, O95202
# Experimental: as §1
# [23] = target: LYAR, Q9NX58
# Experimental: as §1
# [24] = target: MAIP1, Q8WWC4
# Experimental: as §1
# [25] = target: MCM10, Q7L590
# Experimental: as §1
# [26] = target: MED20, Q9H944
# Experimental: as §1
# [27] = target: MEPCE, Q7L2J0
# Experimental: as §1
# [28] = target: MRPL40, Q9NQ50
# Experimental: as §1
# [29] = target: MRPS18B, Q9Y676
# Experimental: as §1
# [30] = target: MRPS35, P82673
# Experimental: as §1
# [31] = target: MRPS9, P82933
# Experimental: as §1
# [32] = target: MTOR, P42345
# Experimental: as §1
# [33] = target: PA2G4, Q9UQ80
# Experimental: as §1
# [34] = target: PINX1, Q96BK5
# Experimental: as §1
# [35] = target: POLR1C, O15160
# Experimental: as §1
# [36] = target: QARS
# Experimental: as §1
# [37] = target: RBX1, P62877
# Experimental: as §1
# [38] = target: RGPD5, Q99666
# Experimental: as §1
# [39] = target: RNH1, P13489
# Experimental: as §1
# [40] = target: SART3, Q15020
# Experimental: as §1
# [41] = target: SRSF8, Q9BRL6
# Experimental: as §1
# [42] = target: TOMM40, O96008
# Experimental: as §1
# [43] = target: TRIP13, Q15645
# Experimental: as §1
# [44] = target: UBR4, Q5T4S7
# Experimental: as §1
# [45] = target: USP39, Q53GS9
# Experimental: as §1
# [46] = target: ZDBF2, Q9HCK1
# Experimental: as §1
binder,measurement,setting,value
CRPLGGTNLEMGLVE [JHDM1D-AS1],PRISMA enrichment of interactor (log2),[1],4.49
same,PRISMA enrichment of interactor (log2),[2],5.09
same,PRISMA enrichment of interactor (log2),[3],4.43
same,PRISMA enrichment of interactor (log2),[4],5.74
same,PRISMA enrichment of interactor (log2),[5],5.37
same,PRISMA enrichment of interactor (log2),[6],4.44
same,PRISMA enrichment of interactor (log2),[7],5.05
same,PRISMA enrichment of interactor (log2),[8],9.16
same,PRISMA enrichment of interactor (log2),[9],7.41
same,PRISMA enrichment of interactor (log2),[10],4.66
same,PRISMA enrichment of interactor (log2),[11],7.8
same,PRISMA enrichment of interactor (log2),[12],3.95
AVPVTCGDTARSALQ [PVT1],PRISMA enrichment of interactor (log2),[1],4.79
same,PRISMA enrichment of interactor (log2),[13],9.58
same,PRISMA enrichment of interactor (log2),[14],5.38
same,PRISMA enrichment of interactor (log2),[15],4.96
same,PRISMA enrichment of interactor (log2),[16],5.56
same,PRISMA enrichment of interactor (log2),[17],5.03
same,PRISMA enrichment of interactor (log2),[18],6.06
same,PRISMA enrichment of interactor (log2),[19],5.32
same,PRISMA enrichment of interactor (log2),[20],4.68
same,PRISMA enrichment of interactor (log2),[21],4.91
same,PRISMA enrichment of interactor (log2),[22],10
same,PRISMA enrichment of interactor (log2),[23],4.67
same,PRISMA enrichment of interactor (log2),[24],7.88
same,PRISMA enrichment of interactor (log2),[25],4.38
same,PRISMA enrichment of interactor (log2),[26],4.85
same,PRISMA enrichment of interactor (log2),[27],6.29
same,PRISMA enrichment of interactor (log2),[28],4.72
same,PRISMA enrichment of interactor (log2),[29],6.25
same,PRISMA enrichment of interactor (log2),[30],4.65
same,PRISMA enrichment of interactor (log2),[31],5.4
same,PRISMA enrichment of interactor (log2),[32],7.77
same,PRISMA enrichment of interactor (log2),[33],5.4
same,PRISMA enrichment of interactor (log2),[34],5.72
same,PRISMA enrichment of interactor (log2),[35],5.79
same,PRISMA enrichment of interactor (log2),[36],7.66
same,PRISMA enrichment of interactor (log2),[37],6.91
same,PRISMA enrichment of interactor (log2),[38],6.59
same,PRISMA enrichment of interactor (log2),[39],6.64
same,PRISMA enrichment of interactor (log2),[40],5.69
same,PRISMA enrichment of interactor (log2),[41],4.64
same,PRISMA enrichment of interactor (log2),[42],4.91
same,PRISMA enrichment of interactor (log2),[43],4.68
same,PRISMA enrichment of interactor (log2),[44],4.77
same,PRISMA enrichment of interactor (log2),[45],4.51
same,PRISMA enrichment of interactor (log2),[46],4.31

# An excerpt taken from the entries so far, as a working copy:
binder,measurement,setting,value
AVPVTCGDTARSALQ [PVT1],PRISMA enrichment of interactor (log2),[16],5.56
same,PRISMA enrichment of interactor (log2),[17],5.03
same,PRISMA enrichment of interactor (log2),[18],6.06
same,PRISMA enrichment of interactor (log2),[19],5.32
same,PRISMA enrichment of interactor (log2),[20],4.68
same,PRISMA enrichment of interactor (log2),[21],4.91
same,PRISMA enrichment of interactor (log2),[22],10
same,PRISMA enrichment of interactor (log2),[23],4.67
same,PRISMA enrichment of interactor (log2),[24],7.88
same,PRISMA enrichment of interactor (log2),[25],4.38
same,PRISMA enrichment of interactor (log2),[26],4.85
same,PRISMA enrichment of interactor (log2),[27],6.29
same,PRISMA enrichment of interactor (log2),[28],4.72
same,PRISMA enrichment of interactor (log2),[29],6.25
